Data reported in patent US9057726B2, “Neuropeptide Q as modulator of GPCR GALR2 and uses thereof” (Actelion Pharmaceuticals Ltd., priority 2010, dated 2015).
At least one peptide structure holds a part that was inferred or is arguable (an end, a ring closure or a residue). No end group written: not given here.

Molecular target: T1, GALR2 (Homo sapiens, UniProt O43603)
T1 sequence (O43603 1-387): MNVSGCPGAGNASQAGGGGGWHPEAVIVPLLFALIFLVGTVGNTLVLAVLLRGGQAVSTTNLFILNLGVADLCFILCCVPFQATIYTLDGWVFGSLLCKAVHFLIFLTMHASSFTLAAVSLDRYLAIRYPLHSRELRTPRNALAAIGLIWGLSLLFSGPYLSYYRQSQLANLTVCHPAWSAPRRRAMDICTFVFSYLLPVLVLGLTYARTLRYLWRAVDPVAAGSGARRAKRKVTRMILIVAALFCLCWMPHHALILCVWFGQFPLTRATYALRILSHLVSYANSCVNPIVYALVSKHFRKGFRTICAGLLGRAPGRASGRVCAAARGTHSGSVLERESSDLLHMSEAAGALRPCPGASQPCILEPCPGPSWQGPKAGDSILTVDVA
Assay: Aequorin assay (intracellular calcium release)
Format: cell-based
Design: expressed in transfected cells; host or cells: CHO-K1 (coexpressing Gα16)
Conditions: CHO-K1 cells coexpressing apoaequorin, Gα16 and human GALR2

With “SPNPQLLTIPEAATILLASLQKSPEDEEKNFDQTRFLEDSLLNW [Pro NPQ (73-116) (SEQ ID NO: 17)]” the EC50 was > 10 µM.
